In PubChem BioAssay AID504444 (National Center for Advancing Translational Sciences (NCATS), 2011):
The whole screen tested about 360,000 compounds, of which about 7,500 (2.1%) were called active. The shares of active, inactive and inconclusive entries below differ from those in the screen. The call rests on the fitted dose curve; in most records, active means well fitted inhibition curve with a large enough effect; inconclusive means small, poorly fitted or top-dose-only effect, or effect the other way; inactive means flat fitted curve, though single readings scatter. Potencies beside an inconclusive call are fits to weak or partial responses and may not hold up.

Experiment: Nrf2 qHTS screen for inhibitors; further: nearly all actives have a fitted effect of over 60% in size
Details: A549 ARE-Fluc reporter, luciferase luminescence, 18-24 h; series mostly up to 46 µM
Outline: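 Nrf2 function is reported as luminescence of an ARE-controlled luciferase in A549 cells. Compounds were tested at several concentrations, and a CellTiter-Fluor read on the same wells flagged cytotoxicity.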
Potency means the concentration at half of the fitted maximal effect.

Row | Structure (SMILES) | Potency
1 | O=C(Nc1cccnc1)c1cccc(S(=O)(=O)N2CCc3ccccc32)c1 | inconclusive: 16.4 µM [falling, single point]
2 | Cc1cccc(CNc2ncnc3ccc(-c4ccc5c(c4)OCCO5)cc23)c1 | active: 14.6 µM
3 | COc1cccc(NC(=O)c2nnn(Cc3cccc(C(F)(F)F)c3)c2N)c1 | inactive
4 | COc1ccc(N2CCN(C(=S)Nc3cccc(C)c3C)CC2)cc1 | active: 25.9 µM
5 | O=C(CN1CCc2ccccc2C1)Nc1ccccc1C(F)(F)F | inactive
6 | O=C(COc1ccc(Cl)cc1)Nc1nc(-c2ccc(S(=O)(=O)N3CCOCC3)cc2)cs1 | inconclusive: 29.1 µM [falling, single point]
7 | COc1ccc(C(=O)On2c(-c3ccc(Br)cc3)nc3ccccc3c2=O)cc1 | inconclusive: 29.1 µM [falling, single point]
8 | Cc1c(-c2ccccc2)nc(N)c(C#N)c1-c1cccs1 | inconclusive: 7.31 µM [falling, partial curve]
9 | COc1ccc(OC)c(S(=O)(=O)Nc2ccc3[nH]c(=O)[nH]c3c2)c1 | inconclusive: 0.82 µM [falling, full curve, poor fit]
10 | CCC1CCc2sc(C(=O)NCc3ccccn3)cc2C1 (centres undefined) | inconclusive: 20.6 µM [activator, single point]
11 | Cc1cccc(CN2C(=O)c3ccccc3S(=O)(=O)c3ccc(C(=O)N4CCCC4)cc32)c1 | inconclusive: 16.4 µM [falling, partial curve, poor fit]
12 | COc1cc(CN(C)c2ncnc3sccc23)ccc1OC(F)F | active: 9.2 µM
13 | COc1ccc(NS(=O)(=O)c2cc(Cl)ccc2Cl)cc1S(=O)(=O)N1CCCCC1 | inconclusive: 20.6 µM [falling, single point]
14 | CCc1ccc(-c2cc(C(=O)N/N=C/c3ccccn3)[nH]n2)cc1 | inactive
15 | O=[N+]([O-])c1ccc(Sc2cccc3cccnc23)c([N+](=O)[O-])c1 | inconclusive: 23.1 µM [falling, single point]
16 | O=C(Nc1cccc2cccnc12)c1cc(F)c(F)cc1Cl | inconclusive: 20.6 µM [activator, single point]
17 | O=C(Nc1ccc(N2CCCCC2)c(Cl)c1)c1ccc(N2CCOCC2)c([N+](=O)[O-])c1 | inconclusive: 23.1 µM [falling, single point]
18 | COc1ccc(-c2nc(NC(=O)c3nc4nccc(C)n4n3)sc2C)cc1 | inconclusive: 20.6 µM [falling, single point]
19 | CC1CCCCN1S(=O)(=O)c1ccc(C(=O)Nc2nnc(-c3ccco3)o2)cc1 (centres undefined) | active: 20.6 µM

A few values from the entries so far:
Value for Cc1cccc(CN2C(=O)c3ccccc3S(=O)(=O)c3ccc(C(=O)N4CCCC4)cc32)c1 under Potency: inconclusive: 16.4 µM [falling, partial curve, poor fit]
Value for COc1cc(CN(C)c2ncnc3sccc23)ccc1OC(F)F under Potency: active: 9.2 µM
